Experimental data reported in article PMC4474691, “Leukemia-Associated Mutations in Nucleophosmin Alter Recognition by CRM1: Molecular Basis of Aberrant Transport” (PLoS ONE, 2015).

By UniProt entry, the sequences of proteins in these tests, tags left out. Where a name states a change or a piece, a line headed by the entry shows the natural chain unless it says otherwise. Chains listed by the source or under a name are the forms on record and can include a tag or linker.
UniProt Q6P5F9: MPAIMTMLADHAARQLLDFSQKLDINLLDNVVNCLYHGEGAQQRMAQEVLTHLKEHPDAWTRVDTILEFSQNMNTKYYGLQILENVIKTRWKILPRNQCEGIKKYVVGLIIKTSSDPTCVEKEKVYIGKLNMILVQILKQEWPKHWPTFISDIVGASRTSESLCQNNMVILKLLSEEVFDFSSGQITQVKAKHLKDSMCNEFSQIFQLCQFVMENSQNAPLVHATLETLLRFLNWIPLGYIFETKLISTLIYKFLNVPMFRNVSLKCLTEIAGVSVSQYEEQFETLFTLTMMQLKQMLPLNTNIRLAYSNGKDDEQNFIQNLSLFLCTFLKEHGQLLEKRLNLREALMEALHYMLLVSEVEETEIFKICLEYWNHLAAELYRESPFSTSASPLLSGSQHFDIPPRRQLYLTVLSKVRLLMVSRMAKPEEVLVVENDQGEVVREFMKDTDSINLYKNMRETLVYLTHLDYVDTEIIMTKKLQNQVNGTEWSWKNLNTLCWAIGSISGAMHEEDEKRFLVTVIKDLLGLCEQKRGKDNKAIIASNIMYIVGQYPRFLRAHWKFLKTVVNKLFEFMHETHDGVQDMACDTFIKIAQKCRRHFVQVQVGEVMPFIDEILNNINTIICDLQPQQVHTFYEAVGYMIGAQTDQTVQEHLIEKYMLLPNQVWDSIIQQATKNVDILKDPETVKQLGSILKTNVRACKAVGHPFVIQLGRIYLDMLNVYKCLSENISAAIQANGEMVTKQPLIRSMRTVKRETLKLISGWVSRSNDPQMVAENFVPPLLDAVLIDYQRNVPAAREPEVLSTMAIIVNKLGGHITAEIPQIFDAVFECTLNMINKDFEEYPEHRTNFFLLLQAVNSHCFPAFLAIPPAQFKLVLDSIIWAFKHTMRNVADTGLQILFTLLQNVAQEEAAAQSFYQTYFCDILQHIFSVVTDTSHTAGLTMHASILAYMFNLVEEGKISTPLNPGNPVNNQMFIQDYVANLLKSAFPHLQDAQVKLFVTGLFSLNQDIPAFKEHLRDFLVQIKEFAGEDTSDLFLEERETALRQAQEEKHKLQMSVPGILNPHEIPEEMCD
NPMmutE (AML-associated NPM mutant E) (P06748, form named): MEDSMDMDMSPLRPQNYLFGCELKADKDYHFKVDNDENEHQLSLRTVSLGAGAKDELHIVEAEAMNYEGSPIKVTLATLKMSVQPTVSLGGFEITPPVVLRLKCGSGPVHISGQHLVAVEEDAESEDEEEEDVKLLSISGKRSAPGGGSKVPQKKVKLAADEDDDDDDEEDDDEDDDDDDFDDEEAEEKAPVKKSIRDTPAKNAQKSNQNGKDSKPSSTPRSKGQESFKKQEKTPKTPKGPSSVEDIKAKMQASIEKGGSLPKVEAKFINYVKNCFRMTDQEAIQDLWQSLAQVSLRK

Biological target: CRM1^HA (high affinity mutant of CRM1) (UniProt Q6P5F9)
Assay: SEC; NPM variant 20 μM (pentamer) mixed with 40 μM CRM1^HA, 30 min at room temperature; Superdex 200 10/30, 20 mM Tris/HCl pH 7.4, 100 mM NaCl, 5 mM DTT, 2 mM MgCl2, 15°C; fractions analysed by SDS-PAGE; no RanGTP; both purified

For “NPMmutE (AML-associated NPM mutant E) (from UniProt P06748 1-294)”, the binding was “binds”.

Results are given in words; binding and its absence hold for the method and conditions named. Binding can be weak; no strength is given.
